B1: antibody A-2 (antibody, V domains shown)
VH: QVQLVQSGAEVKKPGASVKVSCKASGYTFTNHYMHWVRQAPGQGLEWMGLINPWHGTFSNAQKFQGRVTMTRDTSTSTVYMELSSLRSEDTAVYYCARDYVDAFDFWGQGTMVTVSS
VL: AIQLTQSPSSLSASVGDRVTITCRASQGISSALVWYQQKPGKAPKLLIYDASSLESGVPSRFSGSGSGTDFTLTISSLQPEDFATYYCQQFNDYFTFGPGTKVDIK
B2: antibody A-10 (antibody, V domains shown)
VH: QVQLVQSGAEVKKPGASVKVSCKASGYTFTNHYMHWVRQAPGQGLEWMGIINPISGSTSNAQKFQGRVTMTRDTSTSTVYMELSSLRSEDTAVYYCARDYVDAFDFWGQGTMVTVSS
VL: AIQLTQSPSSLSASVGDRVTITCRASQGISSALVWYQQKPGKAPKLLIYDASSLESGVPSRFSGSGSGTDFTLTISSLQPEDFATYYCQQFYDDFDFGPGTKVDIK
B3: antibody A-6 (antibody, V domains shown)
VH: QVQLVQSGAEVKKPGASVKVSCKASGYTFTNHYMHWVRQAPGQGLEWMGIINPISGSTSNAQKFQGRVTMTRDTSTSTVYMELSSLRSEDTAVYYCARDYVDAFDFWGQGTMVTVSS
VL: AIQLTQSPSSLSASVGDRVTITCRASQDVSTALLWYQQKPGKAPKLLIYDASSLESGVPSRFSGSGSGTDFTLTISSLQPEDFATYYCQQFNDYFTFGPGTKVDIK
B4: antibody A-4 (antibody, V domains shown)
VH: QVQLVQSGAEVKKPGASVKVSCKASGYTFTNHYMHWVRQAPGQGLEWMGIINPISGSTSNAQKFQGRVTMTRDTSTSTVYMELSSLRSEDTAVYYCARDYVDAFDFWGQGTMVTVSS
VL: AIQLTQSPSSLSASVGDRVTITCRASQGISSALVWYQQKPGKAPKLLIYDASSLESGVPSRFSGSGSGTDFTLTISSLQPEDFATYYCQQMYDDFNFGPGTKVDIK
B5: antibody A-7 (antibody, V domains shown)
VH: QVQLVQSGAEVKKPGASVKVSCKASGYTFTNHYMHWVRQAPGQGLEWMGIINPISGSTSNAQKFQGRVTMTRDTSTSTVYMELSSLRSEDTAVYYCARDAVDAFDFWGQGTMVTVSS
VL: AIQLTQSPSSLSASVGDRVTITCRASQGISSALVWYQQKPGKAPKLLIYDASSLESGVPSRFSGSGSGTDFTLTISSLQPEDFATYYCQQLYDDFDFGPGTKVDIK
B6: antibody A-5 (antibody, V domains shown)
VH: QVQLVQSGAEVKKPGASVKVSCKASGYTFTNHYMHWVRQAPGQGLEWMGIINPISGSTSNAQKFQGRVTMTRDTSTSTVYMELSSLRSEDTAVYYCARDAVDAFDFWGQGTMVTVSS
VL: AIQLTQSPSSLSASVGDRVTITCRASQDVSTALLWYQQKPGKAPKLLIYDASSLESGVPSRFSGSGSGTDFTLTISSLQPEDFATYYCQQFNDYFTFGPGTKVDIK
B7: antibody A-3 (antibody, V domains shown)
VH: QVQLVQSGAEVKKPGASVKVSCKASGYTFTNHYMHWVRQAPGQGLEWMGIINPISGSTSNAQKFQGRVTMTRDTSTSTVYMELSSLRSEDTAVYYCARDAVDAFDFWGQGTMVTVSS
VL: AIQLTQSPSSLSASVGDRVTITCRASQGISSALVWYQQKPGKAPKLLIYDASSLESGVPSRFSGSGSGTDFTLTISSLQPEDFATYYCQQMYDDFNFGPGTKVDIK
B8: antibody A-8 (antibody, V domains shown)
VH: QVQLVQSGAEVKKPGASVKVSCKASGYTFTNHYMHWVRQAPGQGLEWMGIINPISGSTSNAQKFQGRVTMTRDTSTSTVYMELSSLRSEDTAVYYCARDYVDAFDFWGQGTMVTVSS
VL: AIQLTQSPSSLSASVGDRVTITCRASQGISSALVWYQQKPGKAPKLLIYDASSLESGVPSRFSGSGSGTDFTLTISSLQPEDFATYYCQQLYDDFDFGPGTKVDIK

Chains of the proteins cited; added tags and fusions are not shown. Residues count along the entry.
UniProt Q9GZV9, residues 25-251: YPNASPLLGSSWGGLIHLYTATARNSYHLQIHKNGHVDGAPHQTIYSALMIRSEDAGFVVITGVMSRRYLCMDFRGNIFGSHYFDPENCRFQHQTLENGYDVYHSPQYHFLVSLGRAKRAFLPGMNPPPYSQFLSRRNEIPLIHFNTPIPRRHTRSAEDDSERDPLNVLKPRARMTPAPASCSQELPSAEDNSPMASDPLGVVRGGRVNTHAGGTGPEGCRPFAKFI

In US20250163140A1 one finds binding data, which are given here for eight molecules.

No constants are given. Whether binding was seen depends on the method and setting. Some entries that bind do so weakly or less than the wild type.

This assay deals with Recombinant Human FGF-23 (R&D Systems, Cat No. 2604-FG-025/CF) (human) (UniProt Q9GZV9). Put plainly: SPR, antibody captured on Protein A chip, FGF-23 analyte.
As for B1, the binding entry is “binds”.
B2: the binding entry was “binds”.
For B3 the value was “binds”; for B4, “binds”.
B5: the binding result is given as “binds”.
For B6 the value was “binds”.
The result for B7 reads “binds”; that for B8, “binds”.
